# Reference: PubChem BioAssay AID1347076 (National Center for Advancing Translational Sciences (NCATS), 2019)
# Out of some 400,000 compounds screened, about 13,000 (3.2%) were called active. This list was built around the results that the source calls inconclusive (neither active nor inactive); the mix of calls is not that of the screen. The call rests on the fitted dose curve; in most records, active means well fitted cell-killing curve with a large enough effect; inconclusive means small, poorly fitted or top-dose-only effect, or effect the other way; inactive means flat fitted curve, though single readings scatter. A potency beside an inconclusive call is a rough fit, not a confirmed value. A structure can be active in one record and inactive in another.
# Test: qHTS assay for MDR1-selective chemotherapeutics: Primary screen using the drug-selected MDR subline cells KB-V1; further: nearly all actives have a fitted effect of over 60% in size
# Conditions: KB-V1 MDR cells viability, CellTiter-Glo, 72 h; activity change, negative = cytotoxicity: at 46.1 µM (top of the series)
# Outline: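 Compound-treated KB-V1 multidrug-resistant cells, 72 h, 37 degrees C; viability by CellTiter-Glo. Fitted qHTS curves give the values.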
# On the % scale 0 is the no-effect control and ±100 the full control effect; potency means the concentration at half of the fitted maximal effect.
SMILES,Potency,"activity change, negative = cytotoxicity"
CCN(CC(=O)Nc1cc(Cl)ccc1C)C(=O)c1cc(S(=O)(=O)N2CCCCCC2)ccc1OC,"inconclusive: 7.31 µM [cytotoxic, partial curve, poor fit]",–
CCOC(=O)C(CC)N1CCN(Cc2ccc(F)cc2)C(=O)C1=O (stereo unspecified),inactive,–
COc1ccc(N2C(=NC(=O)C3CCCO3)SC3CS(=O)(=O)CC32)cc1 (stereo unspecified),"inconclusive: 29.1 µM [rising, single point]",–
CCCCOc1ccc(C(=O)Nc2cccc(C)n2)cc1,active: 16.4 µM,–
NS(=O)(=O)c1ccc(N=Nc2nc3[nH]cnc(=S)c3[nH]2)cc1,active: 1.16 µM,–
CCN(CC(=O)Nc1cccc(S(=O)(=O)N2CCOCC2)c1)Cc1ccccc1,"inconclusive: 25.9 µM [cytotoxic, single point]",–
CN(Cc1ccc(Cl)s1)C(=O)CCl,"inconclusive: 16.4 µM [cytotoxic, partial curve, poor fit]",–
CCc1ccc(NC(=O)Cn2nc(SC)c(S(=O)(=O)c3ccc(OC)cc3)c2N)cc1,"inconclusive: 0.103 µM [rising, full curve]",–
O=C(COC(=O)Cc1ccc(Br)cc1)Nc1ccc(Cl)cn1,"inconclusive: 23.1 µM [rising, single point]",–
O=C(C1CCC1)N1CCN(c2ccc(Cl)cc2)CC1,inactive,–
COc1ccc2c(c1)c1ncn(CCN3CCCCC3)c(=O)c1n2C,inactive,–
O=C(c1cc2c(c(-c3cccc(-c4ccncc4)c3)n1)[C@@H](CCO)N(C(=O)c1ccc3c(c1)OCO3)C2)N1CCOCC1,inactive,–
COCCCNC(=O)CCc1c(C)nc2c(c(C)nn2-c2ccc(C)cc2)c1C,"inconclusive: 25.9 µM [cytotoxic, single point]",–
O=C(NC(=S)Nc1cccc(NC(=O)c2ccccc2)c1)c1cccc([N+](=O)[O-])c1,"inconclusive: 5.8 µM [rising, full curve]",–
Cc1cc(C)n2nc(C(=O)NNC(=O)c3ccccc3)nc2n1,inactive,–
C[C@@H]1CN([C@@H](C)CO)C(=O)c2cccc(NC(=O)C3CCCCC3)c2O[C@@H]1CN(C)C(=O)NC1CCCCC1,inactive,–
O=C(CNCCCO)Nc1cc(C(F)(F)F)cc(NC(=O)CNCCCO)c1Cl,–,inconclusive: 10.1%
O=C(Cn1cc([N+](=O)[O-])cn1)Nc1cccnc1,inactive,–
Cc1cc(C)c(NC(=O)Cn2c(=O)n(Cc3ccco3)c(=O)c3ccccc32)c(C)c1,"inconclusive: 20.6 µM [cytotoxic, single point]",–
CCc1ccc(NC(=O)Cn2c(=O)n(CCCC(=O)NCc3ccc4c(c3)OCO4)c(=O)c3ccccc32)cc1,inactive,–
Cc1ccc(NC(=O)c2cc(-c3ccccc3)n[nH]2)cc1,"inconclusive: 23.1 µM [rising, single point]",–
Cc1occc1C(=O)N/N=C/C=C/c1ccccc1[N+](=O)[O-],"inconclusive: 18.4 µM [cytotoxic, single point]",–
CCOC(=O)c1c(S(=O)(=O)N2CCCC(C(=O)N3CCN(c4cc(C)ccc4C)CC3)C2)c(C)n(C)c1C (stereo unspecified),"inconclusive: 14.6 µM [rising, single point]",–
COc1ccc(NC(=O)CN(C)C(=O)c2ccc(COc3ccccc3)o2)cc1,"inconclusive: 23.1 µM [cytotoxic, single point]",–

SMILES,Potency,"activity change, negative = cytotoxicity"
Cc1ccc(C(=O)COC(=O)c2n[nH]c(=O)c3ccccc23)cc1,"inconclusive: 20.6 µM [rising, single point]",–
CCn1c(SCC(=O)N2CCCC2)nc2ccccc2c1=O,active: 6.51 µM,–
O=C(NCC1CCCO1)c1ccc([N+](=O)[O-])s1 (stereo unspecified),"inconclusive: 32.6 µM [cytotoxic, single point]",–
O=C(CCCNC(=O)/C(=C\c1ccc(F)cc1)NC(=O)c1ccccc1)OCc1ccccc1,inactive,–
CCS(=O)(=O)NCC(c1ccco1)N1CCN(c2ccc(F)cc2)CC1 (stereo unspecified),"inconclusive: 16.4 µM [cytotoxic, single point]",–
Cn1c(=O)n(C)c2cc(NS(=O)(=O)c3ccccc3)ccc21,inactive,–
O=C(NCc1ccc2c(c1)OCO2)c1ccc(CS(=O)(=O)c2cccc(C(F)(F)F)c2)o1,active: 18.4 µM,–
CN(Cc1cn(-c2ccccc2)nc1-c1ccc2c(c1)OCO2)Cc1nccn1C,"inconclusive: 32.6 µM [cytotoxic, single point]",–
Cc1ccc([N+](=O)[O-])cc1N(CC(=O)Nc1ccc(S(=O)(=O)Nc2cccc(C(F)(F)F)c2)cc1)S(C)(=O)=O,inactive,–
COc1ccc2cc(C)c3nnc(SCC(=O)Nc4nc(-c5ccc(F)cc5)cs4)n3c2c1,"inconclusive: 1.46 µM [cytotoxic, full curve, poor fit]",–
Cc1nc2ccccc2n1/N=C/c1ccc([N+](=O)[O-])s1,active: 11.6 µM,–
O=C(CCc1nnc(Cc2c[nH]c3ccccc23)o1)NC1CCCC1,inactive,–
CCOC(=O)C1(Cc2cccc(F)c2)CCN(C(=O)Cc2cccnc2)CC1,"inconclusive: 29.1 µM [cytotoxic, single point]",–
C=CCNC(=O)/C(=C/c1cn(-c2ccccc2)nc1-c1cccc([N+](=O)[O-])c1)NC(=O)c1ccccc1,active: 16.4 µM,–
CCCOc1ccc(-c2cn3ccccc3n2)cc1[N+](=O)[O-],inactive,–
Cc1cc(C)cc(OCCSc2nc3ccc(NC(=O)COc4ccccc4)cc3s2)c1,inactive,–
O=C(NN=Cc1ccc(N2CCOCC2)s1)c1ccc([N+](=O)[O-])cc1,"inconclusive: 20.6 µM [cytotoxic, single point]",–
Cc1ccc2c(c1)nnn2C1CCN(CC(=O)NCCc2ccccc2)CC1,"inconclusive: 1.46 µM [cytotoxic, partial curve]",–
CCc1c(C)sc(NC(=O)CCc2ccc(OC)cc2)c1C(N)=O,active: 20.6 µM,–
Cc1ccc(-n2nnc(-c3nccs3)n2)cc1,inactive,–
CC(C)n1c(O)c(N=NC(=O)Cc2csc(N3CCOCC3)n2)c2ccccc21,inactive,–
COCCN1C(=NCCCOC(C)C)N[C@@H](c2ccccc2)C(C(=O)OC)=C1C,inactive,–
COc1ccc(C(CC(=O)N2CCCC2)c2ccc(F)cc2)cc1 (stereo unspecified),"inconclusive: 10.3 µM [cytotoxic, partial curve]",–
COc1ccc(CNC(=O)COC(=O)c2ccccc2OCC(=O)Nc2ccc(SC(F)F)cc2)cc1,inactive,–

SMILES,Potency,"activity change, negative = cytotoxicity"
Cc1cc(C(=O)CSc2nc3ccccc3c(=O)n2C)c(C)n1Cc1ccc2c(c1)OCO2,"inconclusive: 2.59 µM [cytotoxic, full curve]",–
O=C(O)CCCCCCCCc1cn(Cc2ccc(C(=O)c3ccccc3)cc2)nn1,active: 9.2 µM,–
Cc1cc(C)n(-c2nc(NCC3CCCO3)c3c4c(sc3n2)COC(C)(C)C4)n1 (stereo unspecified),"inconclusive: 29.1 µM [cytotoxic, single point]",–
COc1ncccc1C(=O)N1CCCC(C(=O)c2cccc(OC(C)C)c2)C1 (stereo unspecified),"inconclusive: 11.6 µM [cytotoxic, partial curve, poor fit]",–
O=C(COC(=O)c1ccccc1OCc1cccc(Br)c1)Nc1ccc(Br)cc1,inactive,–
COc1ccc(NC(=O)c2cccnc2N2CCCC2)cc1,"inconclusive: 29.1 µM [cytotoxic, single point]",–
CN(CC(=O)NC1CC1)S(=O)(=O)c1ccc(Br)cc1,"inconclusive: 29.1 µM [cytotoxic, single point]",–
NS(=O)(=O)c1ccc(N2N=C(c3ccc(Br)cc3)CC2c2ccc(F)cc2)cc1 (stereo unspecified),"inconclusive: 32.6 µM [cytotoxic, partial curve, poor fit]",–
O=C(CCc1ccccc1)N/N=C\c1cc2c(cc1Br)OCO2,"inconclusive: 20.6 µM [cytotoxic, single point]",–
CC1CCN(C(=O)CCc2ccc(Oc3cc([N+](=O)[O-])cc([N+](=O)[O-])c3)cc2)CC1,"inconclusive: 23.1 µM [cytotoxic, single point]",–
COc1cc(NC(=O)c2ccccc2C)c(OC)cc1NC(=O)CN1CCOCC1,"inconclusive: 4.61 µM [rising, full curve]",–
CCC(C)NC(=O)CCSc1ccc(C)cc1 (stereo unspecified),inactive,–
CC(C)=CCCC(C)c1cc(C(=O)NCCc2ccc(O)cc2)c(N)s1 (stereo unspecified),"inconclusive: 14.6 µM [cytotoxic, partial curve]",–
COc1cccc(N(C(=O)CNC(=O)c2ccco2)C(C(=O)NC2CCCCC2)c2cccnc2)c1 (stereo unspecified),"inconclusive: 29.1 µM [rising, single point]",–
CCOc1ccccc1CN1CCN(S(C)(=O)=O)CC1,–,inconclusive: -32% [cytotoxic]
CCOC(=O)c1nc(Nc2ccc(N3CCOCC3)cc2)c2ccccc2n1,inactive,–
CC(=O)c1ccc(S(=O)(=O)N(CC(=O)NC2CC2)Cc2ccc(F)cc2)cc1,inactive,–
COc1ccc(-c2nnc(NC(=O)c3ccc(S(=O)(=O)N4CCCc5ccccc54)cc3)o2)cc1,"inconclusive: 20 µM [cytotoxic, partial curve, poor fit]",–
O=C(CSc1cccc2cccnc12)N/N=C/c1ccc(F)cc1,"inconclusive: 16.4 µM [cytotoxic, single point]",–
CSc1ccc(-c2nc3cccc(C)n3c2Nc2ccc3c(c2)OCO3)cc1,inactive,–
CC(C)S(=O)(=O)c1ccc(C(=O)Nc2ccc(F)cc2F)cn1,"inconclusive: 29.1 µM [rising, single point]",–
CCNC(=O)NC(=O)C(C)Oc1ccc(Br)cc1Br (stereo unspecified),"inconclusive: 29.1 µM [cytotoxic, single point]",–
COc1ccc(N2C(=O)C(CC(=O)Nc3ccccc3)N(CCC3=CCCCC3)C2=O)cc1 (stereo unspecified),inactive,–

# A few values from the results shown.
# Potency with NS(=O)(=O)c1ccc(N=Nc2nc3[nH]cnc(=S)c3[nH]2)cc1 reads active: 1.16 µM
# Potency with CCc1c(C)sc(NC(=O)CCc2ccc(OC)cc2)c1C(N)=O reads active: 20.6 µM
# Potency with O=C(CCc1ccccc1)N/N=C\c1cc2c(cc1Br)OCO2 reads inconclusive: 20.6 µM [cytotoxic, single point]
